According to PubChem BioAssay AID2685 (National Center for Advancing Translational Sciences (NCATS), 2010):
This is one part of the list. Further columns of the screen follow, without active or inactive calls. The list favours compounds with an active or inconclusive main result. Potencies come from curve fits of mixed quality, noted in brackets.

Assay: qHTS Assay for Lipid Storage Modulators in Drosophila S3 Cells;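 for cell number change: cells counted by Cell Tracker Red CMTPX staining in the red channel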
Details: BODIPY lipid droplet fluorescence, 18-24 h; for cell number change: measured here: cell count max response, cells fed with added oleic acid
Procedure, shortened: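 Drosophila S3 cells loaded with oleic acid (400 uM, as added) and compounds at several concentrations; lipid droplets imaged by 488-nm laser-scanning cytometry, 500–530 nm intensity and object ratio to cell channel. Percent activity normalized to 20 uM Triacsin C.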

[1] = measured here: cell number channel AC50, cells fed with added oleic acid
[2] = measured here: lipid fluorescence (Fed channel) AC50, cells fed with added oleic acid

Row | SMILES | cell number change | AC50 [1] | AC50 [2]
1 | O=C(Nc1ccc2c(c1)OCO2)c1ccc[n+]([O-])c1 | 45.4% | 4.11 µM [rising, full curve] | –
2 | CN1CCN(c2nc(-c3ccccc3)nc3c2oc2ccccc23)CC1 | 23.2% | – | 7.31 µM [rising, partial curve, poor fit]
3 | CCNC(=S)N(Cc1cccs1)Cc1cc2cc(OCC)ccc2[nH]c1=O | -3.81% | – | 1.16 µM [falling, single point]
4 | COC(=O)C1=CN(c2cccc(Cl)c2)C=C(C(=O)OC)C1c1cccc(OC)c1 | 33.4% | 16.4 µM [rising, single point] | 29.1 µM [rising, single point]
5 | CC(C)OC(=O)CSc1nnc2c3ccccc3n(C)c2n1 | 4.77% | 0.103 µM [falling, full curve, poor fit] | 0.366 µM [falling, full curve]
6 | CCC1(C)Cc2ccccc2-c2c1c(=O)n(-c1ccc(C)cc1)c1nnnn21 (stereo not drawn) | 20.7% | – | 20.6 µM [falling, single point]
7 | COc1ccc(C)cc1NC(=O)COC(C)=O | -34.9% | – | –
8 | CCn1c(=O)n(CC)c2cc(N3CCCC3)c(NC(=O)c3ccc(F)cc3)cc21 | -6.42% | – | 0.731 µM [falling, single point]
9 | CCC(C)NC(=O)Cn1cccc1C(=O)c1ccccc1 (stereo not drawn) | -18.8% | 0.651 µM [falling, full curve, poor fit] | –
10 | CN(C)c1nc(OCCOC(=O)Nc2ccc(Cl)cc2Cl)nc(N(C)C)n1 | 63.1% | 11.6 µM [rising, partial curve, poor fit] | 3.66 µM [rising, full curve]
11 | CC(CCCC(C)(C)O)NCCO (stereo not drawn) | 12.5% | – | –
12 | N/C(COc1cc(Cl)cc(Cl)c1)=N\O | 28.9% | 0.651 µM [rising, full curve, poor fit] | 0.731 µM [rising, single point]
13 | CCOC(=O)N1CCC(N2C(=O)c3ccc(C(=O)Nc4ccc(OC)c(OC)c4)cc3C2=O)CC1 | – | – | 6.51 µM [falling, single point]
14 | O=C(CN1CCN(C(=O)c2ccccc2F)CC1)Nc1ccc(Br)cc1 | 98.7% | 14.6 µM [rising, partial curve] | 6.51 µM [rising, single point]
15 | O=C(COC(=O)c1ccc(F)c(S(=O)(=O)N2CCOCC2)c1)NCc1ccco1 | 3.52% | 0.0259 µM [rising, full curve, poor fit] | 6.51 µM [falling, single point]
16 | COc1ccc(C2C(C(C)=O)=C(O)C(=O)N2c2ccccn2)cc1 (stereo not drawn) | -29.2% | 0.0206 µM [falling, full curve] | –
17 | COc1ccccc1CCNC(=O)C(=O)NCCC1CCCCN1S(=O)(=O)c1ccccc1 (stereo not drawn) | -51.7% | – | –
18 | Cc1nc2ccccc2c(=O)n1NC(=O)c1cncc(Br)c1 | – | – | 6.51 µM [rising, single point]
19 | O=C(CCNS(=O)(=O)c1cccc2nsnc12)NC1CCCc2ccccc21 (stereo not drawn) | 1.56% | – | 1.84 µM [rising, partial curve]
20 | CC(=O)c1cc(-c2ccccc2)n(CC(=O)N2CCC(C)CC2)c1C | -51.5% | 9.2 µM [falling, partial curve] | 6.51 µM [falling, partial curve]

Row | SMILES | cell number change | AC50 [1] | AC50 [2]
21 | N#CC1=C2N=C(N)c3ccccc3N2C2=C(C(=O)CCC2)C1c1ccc(Cl)cc1 (stereo not drawn) | 9.71% | – | 2.91 µM [rising, partial curve]
22 | COC(=O)[C@@]12CCCCN1[C@H](c1ccc(-c3ccccc3)cc1)[C@@H]1C(=O)N(C)C(=O)[C@@H]12 | -43.6% | 23.1 µM [falling, single point] | –
23 | O=C(c1ccc(COCC(F)(F)F)o1)N1CCCCCC1 | – | – | 0.103 µM [falling, full curve, poor fit]
24 | Cc1cccc(OCC(=O)N(Cc2cccs2)C2CCS(=O)(=O)C2)c1 (stereo not drawn) | 21.1% | – | 16.4 µM [rising, single point]
25 | COc1ccc(CNC(=O)CN(C(=O)c2ccc(CN3CCOCC3)o2)C2CCCC2)cc1 | -27.1% | – | 23.1 µM [falling, single point]
26 | CCOC(=O)c1c(NC(=O)CSc2ncnc3ccccc23)sc(C)c1C | 1.8% | – | 0.651 µM [rising, partial curve, poor fit]
27 | CS(=O)(=O)n1nc(C(=O)N2CCOCC2)nc1N | – | – | 7.31 µM [falling, partial curve]
28 | CCOC(=O)N1CCN(C(=O)c2ccc3c(=O)n(CCC4=CCCCC4)c(=S)[nH]c3c2)CC1 | -30.3% | – | 0.517 µM [rising, full curve, poor fit]
29 | Cc1ccc(C(=O)Nc2cc(C)nn2CCC#N)cc1 | -3.91% | – | 0.58 µM [falling, single point]
30 | CN(C)c1ccc(/C=[N+](\[O-])C2N(c3ccccc3)C(=S)SC2(C)C)cc1 (stereo not drawn) | -2.12% | – | –
31 | Cc1ccnc(N/C=C(/NC(=O)c2ccccc2)C(=O)N/N=C\c2ccc(F)cc2)n1 | -2.42% | – | 13 µM [rising, single point]
32 | NC(=O)COC(=O)c1cc(S(=O)(=O)N2CCN(c3ccccc3)CC2)ccc1Cl | – | 6.51 µM [rising, single point] | –
33 | Cc1ccc(OCCCCn2cnc3ccccc32)cc1 | -32.6% | 11.6 µM [falling, partial curve] | 13 µM [falling, partial curve]
34 | CCc1cccc(C)c1NC(=O)c1ccc(CN2CCc3ccccc3C2)cc1 | 16.8% | – | –
35 | CN(C)c1ccc(NC(=O)c2ccc3nc[nH]c3c2)cc1 | 4.93% | – | –
36 | O=C(Cc1ccccc1)Nc1nonc1NC(=O)c1ccccc1 | 6.83% | – | 0.206 µM [falling, full curve, poor fit]
37 | COC(=O)c1cc(-c2ccc(OC)c(OC)c2)n[nH]1 | – | 1.64 µM [rising, partial curve] | –
38 | O=C(Cc1ccccc1)Nn1c(-c2ccccc2)nc2ccccc2c1=O | 1.1% | – | 3.26 µM [falling, partial curve, poor fit]
39 | CC(C)CC(=O)NC(=S)NNC(=O)c1ccc([N+](=O)[O-])cc1 | -5.14% | – | –
40 | Cc1cccc(NS(=O)(=O)c2ccc3c(c2)CCC(=O)N3)c1 | 1.35% | – | 0.116 µM [rising, full curve, poor fit]

One compound at a time, from the list above. Values in the order: cell number change	AC50 [1]	AC50 [2]
CN(C)c1nc(OCCOC(=O)Nc2ccc(Cl)cc2Cl)nc(N(C)C)n1 as listed: 63.1%	11.6 µM [rising, partial curve, poor fit]	3.66 µM [rising, full curve]
CC(CCCC(C)(C)O)NCCO (stereo not drawn) as listed: 12.5%	–	–

Later entries.

Row | SMILES | cell number change | AC50 [1] | AC50 [2]
41 | O=C(Nc1cccc(C(=O)O)c1)Nc1ccc2c(c1)OCO2 | -0.495% | – | 29.1 µM [rising, single point]
42 | O=C1CC(c2ccco2)Cc2nc(N3CCc4ccccc4C3)ncc21 (stereo not drawn) | – | 6.51 µM [rising, single point] | 29.1 µM [rising, single point]
43 | O=C(COC(=O)Cn1cnc2ccccc2c1=O)NCc1ccccc1Cl | 39.1% | 0.00461 µM [rising, full curve, poor fit] | 0.00461 µM [rising, full curve, poor fit]
44 | COc1ccc(S(=O)(=O)NCC2CCCN(C(=O)CCC(F)(F)F)C2)cc1 (stereo not drawn) | 4.58% | – | –
45 | COc1ccc(C(=O)C(c2ccccc2)N2CCOCC2)cc1 (stereo not drawn) | -26% | 6.51 µM [falling, single point] | 0.0461 µM [rising, single point]
46 | CCCCNCc1ccc(OCc2ccc(Cl)nc2)c(OC)c1 | -1.42% | – | 0.146 µM [falling, full curve, poor fit]
47 | CC(c1ccccc1)N1CC(C(=O)Nc2nccs2)CC1=O (stereo not drawn) | -23.7% | – | 15.8 µM [rising, single point]
48 | COCc1c(C(=O)N2CCN(c3ccc(C(F)(F)F)cn3)CC2)oc2ccccc12 | – | 0.092 µM [falling, full curve, poor fit] | –
49 | COc1cccc(-c2cc(C(=O)NCCCN3CCOCC3)no2)c1 | 22.6% | – | –
50 | O=C(Nc1cc(F)c(Br)cc1F)c1ccc(Cl)cc1 | -9.42% | – | 6.51 µM [falling, single point]
51 | O=C(O)c1ccc(N2C(=O)c3ccc(C(=O)c4cccc([N+](=O)[O-])c4)cc3C2=O)cc1 | -9.74% | – | –
52 | CC(C)(C)c1nc(S(=O)(=O)c2ccc(Cl)cc2)c(N2CCOCC2)o1 | 16% | – | 29.1 µM [falling, single point]
53 | COc1ccc(OC)c(CC(NC(C)=O)C(=O)NC2CCN(c3nc(C)cc(C)c3C#N)CC2)c1 (stereo not drawn) | 5.94% | – | 0.58 µM [rising, single point]
54 | O=C(CSc1nnc(CNC(=O)c2ccco2)o1)Nc1cccc(Cl)c1 | -1.48% | – | 29.1 µM [rising, single point]
55 | Cc1ccc(NCCC(=O)c2ccccc2)cc1Cl | -2.23% | – | 0.00517 µM [falling, full curve, poor fit]
56 | Cc1cc(NC(=O)CCC(=O)N(CC(=O)NC2CCCC2)Cc2ccc3c(c2)OCO3)no1 | 20.1% | – | –
57 | CCCCCn1c(S(=O)(=O)O)nc2ccccc21 | 3.67% | 6.51 µM [falling, single point] | 6.51 µM [falling, single point]
58 | NC(=O)c1ccc(NC(=O)COC(=O)CCN=C2NS(=O)(=O)c3ccccc32)cc1 | 5.94% | – | 6.51 µM [falling, single point]
59 | COc1ccc(N(CC(O)Cn2c(C)nc3ccccc32)S(=O)(=O)c2ccccc2)cc1 (stereo not drawn) | 15.9% | 7.31 µM [rising, single point] | 1.46 µM [rising, partial curve]
60 | Cc1ccccc1N1CCN(Cc2ccc([N+](=O)[O-])o2)CC1 | 15.5% | – | –

Random excerpt: 2 compounds from above.
Row | SMILES | cell number change | AC50 [1] | AC50 [2]
16 | COc1ccc(C2C(C(C)=O)=C(O)C(=O)N2c2ccccn2)cc1 (stereo not drawn) | -29.2% | 0.0206 µM [falling, full curve] | –
2 | CN1CCN(c2nc(-c3ccccc3)nc3c2oc2ccccc23)CC1 | 23.2% | – | 7.31 µM [rising, partial curve, poor fit]
